The results in this text go back to PubChem BioAssay AID192 (DTP/NCI, 2004).

For this experiment, the system named is BDF1 mice, B16 melanoma ip, median survival T/C. Description: NCI In Vivo Anticancer Drug Screen. Data for tumor model B16 Melanoma (intraperitoneal) in B6D2F1 (BDF1) mice. The note with it: T/C endpoint: median survival time, higher T/C = longer survival. Put shortly:
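Tumor-bearing mice received test compound or vehicle. Survival or tumor size was then measured in both groups. The treated-group figure was divided by the control-group figure.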

[1] abbreviates: dose: 50.0 mg/kg/injection, schedule: Q01DX009 (ip), vehicle: saline with Tween-80.
Setting [2] is: dose: 100.0 mg/kg/injection, schedule: Q01DX009 (ip), vehicle: saline with Tween-80.
[3] abbreviates: dose: 50.0 mg/kg/injection, schedule: Q01DX009 (ip), vehicle: saline.
[4] abbreviates: dose: 100.0 mg/kg/injection, schedule: Q01DX009 (ip), vehicle: saline.
The mark [5] stands for this setting: dose: 200.0 mg/kg/injection, schedule: Q01DX009 (ip), vehicle: saline.
Setting [6] is: dose: 400.0 mg/kg/injection, schedule: Q01DX009 (ip), vehicle: saline.
Where [7] appears, read: dose: 800.0 mg/kg/injection, schedule: Q01DX009 (ip), vehicle: saline with Tween-80.
The mark [8] stands for this setting: dose: 50.0 mg/kg/injection, schedule: Q01DX009 (ip), vehicle: Klucel (hydroxypropylcellulose) (HPC).
[9] abbreviates: dose: 200.0 mg/kg/injection, schedule: Q01DX009 (ip), vehicle: Klucel (hydroxypropylcellulose) (HPC).

The list shows only some results of the screen, not a fair sample: it gathers tests that were run many times, whatever their T/C, doses with no T/C, and many T/C values between a quarter and a half above the control. Other doses and runs of a compound stand elsewhere. T/C is the treated group as % of the vehicle group. Some entries give survivors of the animals treated and no T/C: the source files T/C as zero there, which appears to mark a toxic dose or a test without result, not a measured value. Some survivor counts are full or nearly so, which does not show that the dose was tolerated: survival well below the control is almost never listed, so the zero probably covers shortened survival too. Survivors were counted at the toxicity check, usually on the fifth day, unless a day is given; later deaths do not show. Schedule codes are those of the source, read here as Q, the interval in days (D) or hours (H), X, the number of doses. Some entries hold several experiments; the results are listed from low to high. Where survival is the endpoint, the PubChem record calls one and a half times the control and up active, and a quarter to a half above the control has no call in these data; cut-offs in other NCI protocols can differ. Some T/C values carry the count of animals alive at the toxicity check (mostly the fifth day); where none is given, no animal had died by that day.

For `COc1ccc(OC)c(NC=O)c1`, the survivor count under setting [1] is 10 of 10 and the survivor count under setting [2] is given as 10 of 10.
With `Nc1ccc(S(=O)(=O)N/N=C/c2ccccc2[N+](=O)[O-])cc1`, where the note is “dose: 25.0 mg/kg/injection, schedule: Q01DX009 (ip), vehicle: saline with Tween-80”, the T/C was 125 % of control.
As to `CC(CN(C)C)CN1c2ccccc2Sc2ccc(C(F)(F)F)cc21` (stereo unspecified), the survivor count (dose: 25.0 mg/kg/injection, schedule: Q01DX009 (ip), vehicle: saline) is 5 of 10; the survivor count under setting [3] was 0 of 10; the survivor count under setting [4] is given as 0 of 10; the survivor count under setting [5] was 0 of 10; the survivor count under setting [6] is 0 of 10.
`CCCCNC(C)(C)C1(c2ccc(Cl)cc2)SSC(c2ccc(Cl)cc2)(C(C)(C)NCCCC)SS1` (stereo unspecified): the survivor count by setting is: (dose: 75.0 mg/kg/injection, schedule: Q01DX009 (ip), vehicle: Klucel (hydroxypropylcellulose) (HPC)) 8 of 10; (dose: 150.0 mg/kg/injection, schedule: Q01DX009 (ip), vehicle: Klucel (hydroxypropylcellulose) (HPC)) 9 of 10; (dose: 300.0 mg/kg/injection, schedule: Q01DX009 (ip), vehicle: Klucel (hydroxypropylcellulose) (HPC)) 8 of 10.
In the case of `O=C(Nc1ccc([N+](=O)[O-])cc1)Nc1ccc([N+](=O)[O-])c(C(F)(F)F)c1`, the survivor count is, setting by setting: under setting [1], 6 of 6; under setting [2], 6 of 6; (dose: 200.0 mg/kg/injection, schedule: Q01DX009 (ip), vehicle: saline with Tween-80) 6 of 6; (dose: 400.0 mg/kg/injection, schedule: Q01DX009 (ip), vehicle: saline with Tween-80) 3 of 6.
For `C1CNC2NCCNC2N1` (stereo unspecified), the survivor count reads like this: under setting [3], 7 of 10; under setting [4], 9 of 10; under setting [5], 0 of 10 and 3 of 10; under setting [6], 0 of 10.
For the compound `NC(=S)N/N=C1/c2cc(Cl)ccc2-c2c(NC(=O)C(Cl)Cl)cc(Cl)cc21`, the survivor count under setting [7] is reported as 0 of 6.
Turning to `Cc1ccc(C(=O)NC2C(=O)NC(C(C)C)C(=O)N3CCCC3C(=O)N(C)CC(=O)N(C)C(C(C)C)C(=O)OC2C)c2c1Oc1c(c(C(=O)NC3C(=O)NC(C(C)C)C(=O)N4CCCC4C(=O)N(C)CC(=O)N(C)C(C(C)C)C(=O)OC3C)c3nc(CF)c(=O)oc3c1C)N2` (stereo unspecified), the survivor count (dose: 0.5 mg/kg/injection, schedule: Q04DX003 (ip), vehicle: saline + alcohol) is recorded as 10 of 10; the survivor count (dose: 1.0 mg/kg/injection, schedule: Q04DX003 (ip), vehicle: saline + alcohol) is 10 of 10; the survivor count (dose: 2.0 mg/kg/injection, schedule: Q04DX003 (ip), vehicle: saline + alcohol) was 10 of 10; the survivor count (dose: 4.0 mg/kg/injection, schedule: Q04DX003 (ip), vehicle: saline + alcohol) is on record as 0 of 10. For the same compound, the T/C (dose: 62.5 micrograms/kg/injection, schedule: Q04DX003 (ip), vehicle: water) is 134 % of control.
Consider `COc1ccc(CC2C(=O)NC(C)C(=O)N(C)C3C(=O)N(C)C(Cc4ccc(O)c(c4)Oc4ccc(cc4)C3O)C(=O)NC(C)C(=O)NC(C)C(=O)N2C)cc1` (stereo unspecified), for which the T/C was 140 % of control (dose: 0.12 mg/kg/injection, schedule: Q01DX009 (ip), vehicle: saline with Tween-80); 147 % of control [9 of 10 alive] (dose: 0.25 mg/kg/injection, schedule: Q01DX009 (ip), vehicle: saline with Tween-80); 147 % of control [9 of 10 alive] (dose: 1.0 mg/kg/injection, schedule: Q01DX009 (ip), vehicle: saline with Tween-80); 141 % of control (dose: 250.0 micrograms/kg/injection, schedule: Q01DX009 (ip), vehicle: saline with Tween-80); 147 % of control (dose: 500.0 micrograms/kg/injection, schedule: Q01DX009 (ip), vehicle: saline with Tween-80); 149 % of control (dose: 1000.0 micrograms/kg/injection, schedule: Q01DX009 (ip), vehicle: saline with Tween-80). Further, the T/C (dose: 2000.0 micrograms/kg/injection, schedule: Q01DX009 (ip), vehicle: saline with Tween-80) is 144 % of control. Besides, the survivor count is reported as 9 of 10 (dose: 2.0 mg/kg/injection, schedule: Q01DX009 (ip), vehicle: saline with Tween-80); 2 of 10 (dose: 4.0 mg/kg/injection, schedule: Q01DX009 (ip), vehicle: saline with Tween-80); 7 of 10 (dose: 4000.0 micrograms/kg/injection, schedule: Q01DX009 (ip), vehicle: saline with Tween-80).
With `CC(N)C(O)c1cccc(O)c1` (stereo unspecified), the survivor count under setting [4] is 5 of 10.
Regarding `Clc1ccc2c(c1)C([P+](c1ccccc1)(c1ccccc1)c1ccccc1)c1cc(Cl)cc(Cl)c1-2` (stereo unspecified), the survivor count under setting [7] is reported as 5 of 6.
`O=C(O)c1cc2ccccc2cn1`: the survivor count under setting [5] is 1 of 10.
With `O=C(O)C(O)C(O)C(O)C(O)C(=O)O` (stereo unspecified), for the setting “dose: 1200.0 mg/kg/injection, schedule: Q01DX009 (ip), vehicle: Klucel (hydroxypropylcellulose) (HPC)”, the survivor count was 5 of 10.
Consider `c1ccc2c(NCCCCCCCCNc3c4ccccc4nc4ccccc34)c3ccccc3nc2c1`, for which the T/C runs as follows: (dose: 2.5 mg/kg/injection, schedule: Q01DX009 (ip), vehicle: Klucel (hydroxypropylcellulose) (HPC)) 129 and 146 % of control; (dose: 10.0 mg/kg/injection, schedule: Q01DX009 (ip), vehicle: Klucel (hydroxypropylcellulose) (HPC)) 139 % of control. Besides, the survivor count was 10 of 10 (dose: 20.0 mg/kg/injection, schedule: Q01DX009 (ip), vehicle: Klucel (hydroxypropylcellulose) (HPC)); 8 of 10 and 10 of 10 (dose: 40.0 mg/kg/injection, schedule: Q01DX009 (ip), vehicle: Klucel (hydroxypropylcellulose) (HPC)); 0 of 10 and 3 of 10 (dose: 80.0 mg/kg/injection, schedule: Q01DX009 (ip), vehicle: Klucel (hydroxypropylcellulose) (HPC)).
For `CCOC(C[Se][Se]CC(OCC)OCC)OCC`, the survivor count (dose: 12.5 mg/kg/injection, schedule: Q01DX009 (ip), vehicle: saline) is reported as 0 of 10.
Take `NC(Cc1cc([N+](=O)[O-])ccc1CN(CCCl)CCCl)C(=O)O` (stereo unspecified): the survivor count (dose: 25.0 mg/kg/injection, schedule: Q01DX001 (ip), vehicle: Klucel (hydroxypropylcellulose) (HPC)) was 10 of 10.
On to `C[C@H]1C[C@@H]2[C@H]([C@@H](O)C[C@@]3(C)[C@H]2CC[C@]3(O)C(=O)CO)[C@@]2(C)C=CC(=O)C=C12`, for which the T/C under setting [8] is 126 % of control.
Regarding `NC(=O)OCCCc1ccccc1`, the survivor count under setting [9] is 9 of 10.
With `CC1(C)OC(=O)N(CO)C1=O`, the survivor count under setting [6] is recorded as 8 of 10.
Regarding `N[C@H](C(=O)O)[C@H]1ON=C(Cl)[C@@H]1O`, the T/C is 131 % of control [9 of 10 alive] (dose: 32.0 mg/kg/injection, schedule: Q01DX009 (ip), vehicle: saline) and 132 % of control (dose: 128.0 mg/kg/injection, schedule: Q01DX009 (ip), vehicle: saline).
On to `O=[N+]([O-])c1ccc(/C=N\Nc2ccc([N+](=O)[O-])cn2)cc1`, for which the survivor count is 10 of 10 (dose: 6.25 mg/kg/injection, schedule: Q01DX009 (ip), vehicle: Klucel (hydroxypropylcellulose) (HPC)); 10 of 10 (dose: 25.0 mg/kg/injection, schedule: Q01DX009 (ip), vehicle: Klucel (hydroxypropylcellulose) (HPC)); 10 of 10 under setting [8].
Consider `COc1ccc(/C=C2\C(=O)OC(=O)\C2=C\c2ccc(OC)c(OC)c2)cc1OC`, for which the survivor count was 10 of 10 under setting [8]; 9 of 10 (dose: 100.0 mg/kg/injection, schedule: Q01DX009 (ip), vehicle: Klucel (hydroxypropylcellulose) (HPC)); 7 of 10 under setting [9]; 1 of 10 (dose: 400.0 mg/kg/injection, schedule: Q01DX009 (ip), vehicle: Klucel (hydroxypropylcellulose) (HPC)).
As for `CCOC(=O)N1CCN(CCCCCOc2ccc(CC(C)(C)C)cc2Cl)CC1`, the survivor count is recorded as 8 of 10 under setting [3], 10 of 10 under setting [4] and 6 of 10 under setting [5].
